For this series, the target named is Lon4E (UniProt P0CAW0). The series is described as follows: fluorescence polarization. As to conditions: 300 nM hexamer, 200 nM DNA, 10 mM MgCl2. A general note: In fluorescence polarisation assays a small probe gives low polarisation when free and higher when bound to something large.

Amino acid sequences for entries named in this document (tags omitted). A change or cut given only in a name is not applied to a line headed by its entry.
UniProt P0CAW0: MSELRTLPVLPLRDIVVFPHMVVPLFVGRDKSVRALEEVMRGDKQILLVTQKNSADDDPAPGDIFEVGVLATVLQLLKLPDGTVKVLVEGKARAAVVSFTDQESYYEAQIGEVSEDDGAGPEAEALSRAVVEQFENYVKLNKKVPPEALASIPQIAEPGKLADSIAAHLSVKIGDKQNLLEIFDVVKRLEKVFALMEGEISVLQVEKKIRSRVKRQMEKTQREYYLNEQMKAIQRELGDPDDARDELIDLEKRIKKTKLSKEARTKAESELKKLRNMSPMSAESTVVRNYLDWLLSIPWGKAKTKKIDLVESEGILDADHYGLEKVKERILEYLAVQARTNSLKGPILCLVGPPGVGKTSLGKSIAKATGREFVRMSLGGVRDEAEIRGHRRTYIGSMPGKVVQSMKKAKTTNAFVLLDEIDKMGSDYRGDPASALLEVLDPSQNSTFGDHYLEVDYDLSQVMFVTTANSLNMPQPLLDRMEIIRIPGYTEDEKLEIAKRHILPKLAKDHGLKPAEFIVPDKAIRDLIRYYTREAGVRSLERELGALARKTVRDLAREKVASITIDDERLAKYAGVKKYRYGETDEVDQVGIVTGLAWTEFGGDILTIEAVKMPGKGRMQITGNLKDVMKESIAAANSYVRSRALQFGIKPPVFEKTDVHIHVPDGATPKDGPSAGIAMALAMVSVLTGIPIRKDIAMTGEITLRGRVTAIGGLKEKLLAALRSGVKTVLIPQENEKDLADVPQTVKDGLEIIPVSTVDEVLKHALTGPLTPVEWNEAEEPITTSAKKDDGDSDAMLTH

Construct, isoform or probe ends are uncertain for at least one entry. Negatives hold for the conditions tested.

1 sequence from paper doi:10.1101/317677 can be followed below.

For “AACGGATGATCCACAGGAGAGTCTGGCGCAGGGCGAGAG [FAM-DNA oligo]”, the binding result was “no binding”.
